Earlier results, collected in article PMC11052071, “Novel JAK Inhibitors to Reduce Graft-Versus-Host Disease after Allogeneic Hematopoietic Cell Transplantation in a Preclinical Mouse Model” (Molecules, 2024).

System: PKN1
Details: murine and human whole-kinome analyses; cited from earlier work

For `CCS(=O)(=O)N1CC(CC#N)(n2cc(-c3ncnc4[nH]ccc34)cn2)C1` [BARI, baricitinib, reference compound], the “inhibition of off target PKN1” value is listed as “inhibited by BARI”.
